Laboratory results: PubChem BioAssay AID493246 (Drosophila RNAi Screening Center, 2011)
Aim: 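Genes fly cells need to grow and stay alive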 (primary screen). Cells: Drosophila Kc and S2R+ cells. Reagent: long dsRNA against Drosophila genes. Detection: 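Raw, unnormalised count of remaining cells in each well; per-plate z-scores of cell number underlie the calls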. Scale: Kc cell number and S2R+ cell number: higher = more cells remaining. Rule for the call: 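Counted as a hit if cell number falls by a z-score of at least 3 within its plate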.
The deposit covers about 21,000 reagents; shown is an unselected part of those that have a named target and a result. Over the whole deposit, 429 (2%) are marked active. 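Values are raw and not normalised between plates; calls rest on per-plate z-scores that were not deposited.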 A number with no mark means an inactive call. Names joined by + are all predicted targets of the reagent. The record does not give: the amount of reagent, the time to read-out.

Target gene,"Kc cell number, rep 1","Kc cell number, rep 2","S2R+ cell number, rep 1","S2R+ cell number, rep 2"
mRpS35,1.42e6,1.42e6,9.70e5,1.21e6
Tsp42Ej,1.28e6,1.42e6,1.19e6,1.10e6
boca,1.53e6,1.62e6,1.25e6,1.39e6
Frq1,1.51e6,1.51e6,1.09e6,1.14e6
prim,1.63e6,1.62e6,1.27e6,1.46e6
Ref2,1.60e6,1.63e6,1.21e6,1.34e6
CG15382,1.50e6,1.54e6,1.00e6,1.19e6
Dh31,1.70e6,1.71e6,1.25e6,1.46e6
TTLL4B,1.28e6,1.34e6,8.01e5,8.51e5
Pitslre,1.34e6,1.46e6,8.18e5,9.08e5
CG33506,1.22e6,1.40e6,9.78e5,1.03e6

Part of the list above, reformatted.
boca: Kc cell number, rep 1 = 1.53e6; Kc cell number, rep 2 = 1.62e6; S2R+ cell number, rep 1 = 1.25e6; S2R+ cell number, rep 2 = 1.39e6
Frq1: Kc cell number, rep 1 = 1.51e6; Kc cell number, rep 2 = 1.51e6; S2R+ cell number, rep 1 = 1.09e6; S2R+ cell number, rep 2 = 1.14e6
prim: Kc cell number, rep 1 = 1.63e6; Kc cell number, rep 2 = 1.62e6; S2R+ cell number, rep 1 = 1.27e6; S2R+ cell number, rep 2 = 1.46e6

The listing continues:
Target gene,"Kc cell number, rep 1","Kc cell number, rep 2","S2R+ cell number, rep 1","S2R+ cell number, rep 2"
CG4363,1.54e6,1.58e6,1.26e6,4.15e5
PIG-O,1.50e6,1.51e6,1.21e6,1.29e6
Skp2 + CG1103,1.84e6,1.93e6,1.33e6,1.42e6
Or33a,1.57e6,1.70e6,1.19e6,1.38e6
CG6040,1.59e6,1.61e6,1.14e6,1.19e6
Arp8,1.67e6,1.69e6,1.11e6,1.24e6
beat-Va,1.78e6,1.81e6,1.31e6,1.42e6
Or10a,1.55e6,1.53e6,1.05e6,1.12e6
Dtd,1.47e6,1.41e6,1.21e6,1.40e6
CR31958,1.63e6,1.58e6,1.20e6,1.39e6
Ttc7,1.32e6,1.36e6,1.14e6,1.23e6
Jhbp2,1.85e6,2.02e6,1.28e6,1.32e6
CG34301,1.41e6,1.46e6,1.04e6,1.24e6
